Source: PubChem BioAssay AID602196 (INSERM, 2012)
This is one part, drawn at random, of about 23,000 deposited reagents. 455 of all reagents (2%) count as active. 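Active includes both protection and sensitisation; some change values fall well beyond the stated -50 to +50 range.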 The numbers tell different reagents against one gene apart. Not all columns of the deposit are shown. Not given: the amount of reagent.

Purpose: 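Knock-downs that protect lung cancer cells from cisplatin or sensitise them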
System: human A549 lung cancer cells
Reagents: siRNA pair against human genes
Time to read-out: 48 h transfection before cisplatin; time from cisplatin to read-out not stated
Treatment: cisplatin at a dose killing half of control-siRNA cells; exact dose and duration not given
Measurement: 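Cisplatin cell death as a shift from the 50% death seen with control siRNA; siRNAs toxic or growth-blocking alone scored 0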
Direction: two-siRNA summed score (-2 to +2): higher = both siRNAs protect from cisplatin killing; -2 means both sensitise
Hit rule: 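Each siRNA scores 0 if harmful alone by LDH or WST-1, otherwise +1 if it reduces and -1 if it increases cisplatin killing; a gene is active when both siRNAs agree (sum +2 or -2)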
Calls: active = both siRNAs shift cisplatin killing the same way; inactive = no consistent shift, or siRNA harmful alone

| gene knocked down | reagent | two-siRNA summed score (-2 to +2) | Call |
| --- | --- | --- | --- |
| FURIN (GeneID 5045) | 1 | -1 | inactive |
| MTX3 (GeneID 345778) | 1 | 0 | inactive |
| LOC441219 | 1 | 0 | inactive |
| LOC440332 | 1 | 0 | inactive |
| PPM1N (GeneID 147699) | 1 | 0 | inactive |
| LOC389992 | 1 | 0 | inactive |
| FYN (GeneID 2534) | 1 | 1 | inactive |
| TMEM184C (GeneID 55751) | 1 | -1 | inactive |
| IL1R2 (GeneID 7850) | 1 | -1 | inactive |
| ACTG1 (GeneID 71) | 1 | 0 | inactive |
| LOC442274 | 1 | -1 | inactive |
| LOC388952 | 1 | 0 | inactive |
| SEMA4G (GeneID 57715) | 1 | 0 | inactive |
| AGMO (GeneID 392636) | 1 | 0 | inactive |
| LYNX1 (GeneID 66004) | 1 | 1 | inactive |
| SH2D4A (GeneID 63898) | 1 | 0 | inactive |
| LOC440585 | 1 | 0 | inactive |
| PAPSS1 (GeneID 9061) | 1 | -1 | inactive |
| TSC22D1 (GeneID 8848) | 1 | 0 | inactive |
| LOC390367 | 1 | 0 | inactive |
| PRIM2 (GeneID 5558) | 1 | 0 | inactive |
| LOC442350 | 1 | 0 | inactive |
| EIF3G (GeneID 8666) | 1 | 0 | inactive |
| LOC340267 | 1 | 0 | inactive |
| ICAM3 (GeneID 3385) | 1 | 1 | inactive |
| GABRA4 (GeneID 2557) | 1 | 1 | inactive |
| LOC440584 | 1 | 0 | inactive |
| NFATC4 (GeneID 4776) | 1 | -1 | inactive |
| RNF139 (GeneID 11236) | 1 | -2 | active |
| NECAP2 (GeneID 55707) | 1 | -1 | inactive |
| PTRH2 (GeneID 51651) | 1 | 0 | inactive |
| PTRH2 (GeneID 51651) | 2 | 0 | inactive |
| TMEM198 (GeneID 130612) | 1 | 0 | inactive |
| ZBTB44 (GeneID 29068) | 1 | 0 | inactive |
| SMARCD1 (GeneID 6602) | 1 | 1 | inactive |
| ARHGDIA (GeneID 396) | 1 | 0 | inactive |
| GIMAP2 (GeneID 26157) | 1 | 0 | inactive |
| BEND6 (GeneID 221336) | 1 | 0 | inactive |
| EXT2 (GeneID 2132) | 1 | 0 | inactive |
| KIF25-AS1 (GeneID 100505879) | 1 | 0 | inactive |
| LOC56930 | 1 | 0 | inactive |
| CEP250 (GeneID 11190) | 1 | 1 | inactive |
| L3HYPDH (GeneID 112849) | 1 | 0 | inactive |
| MAP2K6 (GeneID 5608) | 1 | 0 | inactive |
| MXD1 (GeneID 4084) | 1 | -1 | inactive |
| LINC02656 (GeneID 399716) | 1 | 0 | inactive |
| SSB (GeneID 6741) | 1 | 0 | inactive |
| GBP3 (GeneID 2635) | 1 | 1 | inactive |
| OR14I1 (GeneID 401994) | 1 | 1 | inactive |
| PDIA6 (GeneID 10130) | 1 | 1 | inactive |
| GNAT1 (GeneID 2779) | 1 | 0 | inactive |
| COL14A1 (GeneID 7373) | 1 | 0 | inactive |
| SLC18A1 (GeneID 6570) | 1 | -1 | inactive |
| MAPKAPK2 (GeneID 9261) | 1 | 1 | inactive |
| CCDC174 (GeneID 51244) | 1 | 0 | inactive |
| VTA1 (GeneID 51534) | 1 | 0 | inactive |
| GALNT17 (GeneID 64409) | 1 | 0 | inactive |
| LINC01567 (GeneID 400511) | 1 | 0 | inactive |
| LOC400985 | 1 | 0 | inactive |
| SLC25A45 (GeneID 283130) | 1 | 0 | inactive |
| MAGEA11 (GeneID 4110) | 1 | 0 | inactive |
| MAGEA11 (GeneID 4110) | 2 | 0 | inactive |
| NDST4 (GeneID 64579) | 1 | 0 | inactive |
| TRPV6 (GeneID 55503) | 1 | 1 | inactive |
| FZD10 (GeneID 11211) | 1 | 0 | inactive |
| SPOP (GeneID 8405) | 1 | 0 | inactive |
| MPC1 (GeneID 51660) | 1 | 0 | inactive |
| ERAP1 (GeneID 51752) | 1 | 0 | inactive |
| FKBP5 (GeneID 2289) | 1 | 0 | inactive |
| LOC285216 | 1 | 1 | inactive |
| PIN1 (GeneID 5300) | 1 | 0 | inactive |
| CFAP54 (GeneID 144535) | 1 | 1 | inactive |
| MSTN (GeneID 2660) | 1 | 1 | inactive |

3 successive entries already listed, for reference:
| gene knocked down | reagent | two-siRNA summed score (-2 to +2) | Call |
| --- | --- | --- | --- |
| GNAT1 (GeneID 2779) | 1 | 0 | inactive |
| COL14A1 (GeneID 7373) | 1 | 0 | inactive |
| SLC18A1 (GeneID 6570) | 1 | -1 | inactive |
